Measured values as given in patent US11149230B2, “Process for extracting carboxylic acids produced by anaerobic fermentation from fermentable biomass” (AFYREN, priority 2015, dated 2021).

Assay: Test 1: liquid-liquid extraction of carboxylic acids from fermentation medium with endogenous solvent
Format: physicochemical
Settings: 50 ml liquid phase of fermentation medium (household waste, 50 g/l DM), pH 4.3, solvent in 1/1 volume ratio

| SMILES | extraction yield |
| --- | --- |
| CCCCCCC(=O)O [heptanoic acid, Heptanoic acid] | 37% |
| CCCCCCCC(=O)O [octanoic acid, Octanoic acid] | identical yield |
